Data source: PubChem BioAssay AID1259405 (NCATS, 2018)

- Purpose: 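Knock-downs that lift recombinant protein yield in hamster ovary cells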 (primary screen)
- Cells: Chinese hamster CHO-K1 ovary cells with stable secreted eGFP expression
- Reagents: single siRNA against mouse genes, 0.8 pmol siRNA per well (2 µl of 400 nM stock)
- Duration: 3 days
- Measurement: 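Percent of the per-plate non-targeting control median for intracellular GFP per well by laser scanning cytometry and for cell viability by ATP luminescence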
- Scale: GFP, % of control: higher = more GFP per well, higher productivity; viability (ATP), % of control: higher = more viable cells (more ATP)
- Rule for the call: 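a knock-down is called active if GFP reaches 120% or more of non-targeting control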
Shown is an unselected part of about 50,000 deposited reagents. Of all reagents, about 4,000 (8%) are marked active. 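Mouse siRNA library applied to hamster cells; one well for each siRNA.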 A number with no mark means an inactive call. Reagents against one gene are numbered here.

Rusc1 #1 showed GFP, % of control 79.3; viability (ATP), % of control 52.6.
Rusc1 #2 gave GFP, % of control 90; viability (ATP), % of control 73.9.
After knock-down of Rusc1 #3, the screen gave GFP, % of control 68.5; viability (ATP), % of control 70.1.
Gen1 #1 showed GFP, % of control 73.6; viability (ATP), % of control 58.
Knock-down of Gen1 #2 gave: GFP, % of control 62.6; viability (ATP), % of control 69.7.
For Gen1 #3 the deposit lists GFP, % of control 59.5; viability (ATP), % of control 59.
Pdgfa #1 scored GFP, % of control 131 (active); viability (ATP), % of control 102.
Against Pdgfa #2 the deposit lists GFP, % of control 66.5; viability (ATP), % of control 63.1.
Against Pdgfa #3, the entry reads GFP, % of control 81.9; viability (ATP), % of control 70.6.
Vmn1r219 #1 showed GFP, % of control 121 (active); viability (ATP), % of control 46.2.
Against Vmn1r219 #2 the deposit lists GFP, % of control 93.4; viability (ATP), % of control 54.9.
Knock-down of Vmn1r219 #3 came out at: GFP, % of control 88; viability (ATP), % of control 95.7.
Senp6 #1 showed GFP, % of control 62.1; viability (ATP), % of control 50.9.
Against Senp6 #2, the entry reads GFP, % of control 122 (active); viability (ATP), % of control 79.5.
Against Senp6 #3, the values are GFP, % of control 57.4; viability (ATP), % of control 52.4.
Depletion of Scart1 #1 came out at: GFP, % of control 67.8; viability (ATP), % of control 80.4.
Against Scart1 #2 the deposit lists GFP, % of control 63.1; viability (ATP), % of control 84.4.
Depletion of Scart1 #3 resulted in: GFP, % of control 70.4; viability (ATP), % of control 70.5.
Depletion of Fmo3 #1 came out at: GFP, % of control 36.4; viability (ATP), % of control 67.5.
Against Fmo3 #2, the values are GFP, % of control 75.3; viability (ATP), % of control 83.9.
For Fmo3 #3, the values are GFP, % of control 115; viability (ATP), % of control 70.1.
Against Gpr156 #1, the entry reads GFP, % of control 85.2; viability (ATP), % of control 61.8.
With knock-down of Gpr156 #2, the screen gave GFP, % of control 86.8; viability (ATP), % of control 74.
Silencing of Gpr156 #3 gave: GFP, % of control 53.1; viability (ATP), % of control 49.9.
Depletion of Bpifa1 #1 gave: GFP, % of control 47.1; viability (ATP), % of control 70.6.
With knock-down of Bpifa1 #2, the record shows GFP, % of control 64.2; viability (ATP), % of control 75.4.
Bpifa1 #3 gave GFP, % of control 109; viability (ATP), % of control 104.
For Mapk9, the entry reads GFP, % of control 59.9; viability (ATP), % of control 71.3.
Against Bola3 #1 the deposit lists GFP, % of control 48.2; viability (ATP), % of control 69.7.
Silencing of Bola3 #2 came out at: GFP, % of control 80.7; viability (ATP), % of control 46.3.
Against Bola3 #3 the deposit lists GFP, % of control 74.9; viability (ATP), % of control 87.5.
Against Calm5 #1, the entry reads GFP, % of control 25.8; viability (ATP), % of control 52.
Against Calm5 #2 the deposit lists GFP, % of control 93.4; viability (ATP), % of control 61.3.
Silencing of Calm5 #3 resulted in: GFP, % of control 67.3; viability (ATP), % of control 63.8.
Gm266 #1 showed GFP, % of control 72; viability (ATP), % of control 73.2.
Depletion of Gm266 #2 came out at: GFP, % of control 48.1; viability (ATP), % of control 48.5.
For Gm266 #3 the deposit lists GFP, % of control 79.2; viability (ATP), % of control 65.6.
Fndc9 #1 gave GFP, % of control 89.8; viability (ATP), % of control 68.5.
Against Fndc9 #2, the values are GFP, % of control 79.5; viability (ATP), % of control 116.
Fndc9 #3 scored GFP, % of control 149 (active); viability (ATP), % of control 152.
Knock-down of Pcare #1 came out at: GFP, % of control 39.8; viability (ATP), % of control 46.1.
Pcare #2 gave GFP, % of control 93.6; viability (ATP), % of control 95.8.
After knock-down of Pcare #3, the screen gave GFP, % of control 96.6; viability (ATP), % of control 117.
Knock-down of Ugp2 #1 came out at: GFP, % of control 44.6; viability (ATP), % of control 35.8.
With knock-down of Ugp2 #2 the results were GFP, % of control 40.4; viability (ATP), % of control 73.6.
Silencing of Ugp2 #3 came out at: GFP, % of control 72; viability (ATP), % of control 72.4.
Atp5if1 #1 scored GFP, % of control 81; viability (ATP), % of control 74.9.
Atp5if1 #2 showed GFP, % of control 86.2; viability (ATP), % of control 106.
Against Atp5if1 #3, the entry reads GFP, % of control 43.3; viability (ATP), % of control 68.9.
Cyp4a12b #1 showed GFP, % of control 126 (active); viability (ATP), % of control 57.1.
Cyp4a12b #2 gave GFP, % of control 71.5; viability (ATP), % of control 80.2.
After knock-down of Cyp4a12b #3, the record shows GFP, % of control 152 (active); viability (ATP), % of control 63.1.

9 of these entries, reformatted.
{"Target gene":"Vmn1r219","reagent no.":3,"GFP, % of control":88,"viability (ATP), % of control":95.7}
{"Target gene":"Senp6","reagent no.":1,"GFP, % of control":62.1,"viability (ATP), % of control":50.9}
{"Target gene":"Senp6","reagent no.":2,"GFP, % of control":"122 (active)","viability (ATP), % of control":79.5}
{"Target gene":"Senp6","reagent no.":3,"GFP, % of control":57.4,"viability (ATP), % of control":52.4}
{"Target gene":"Scart1","reagent no.":1,"GFP, % of control":67.8,"viability (ATP), % of control":80.4}
{"Target gene":"Scart1","reagent no.":2,"GFP, % of control":63.1,"viability (ATP), % of control":84.4}
{"Target gene":"Scart1","reagent no.":3,"GFP, % of control":70.4,"viability (ATP), % of control":70.5}
{"Target gene":"Fmo3","reagent no.":1,"GFP, % of control":36.4,"viability (ATP), % of control":67.5}
{"Target gene":"Fmo3","reagent no.":2,"GFP, % of control":75.3,"viability (ATP), % of control":83.9}
